Test results as given in article doi:10.1101/2024.09.10.612170.
No constants are given. Whether binding was seen depends on the method and setting. Binding seen in cells or lysates may run through a third protein. For some of these results: Binding calls can cover weak binding; strength is not graded here. Sequences can lack the tags named with a protein.

T1: FLAG-tagged EB1 (Drosophila) (UniProt Q9XZ57)
T1 sequence: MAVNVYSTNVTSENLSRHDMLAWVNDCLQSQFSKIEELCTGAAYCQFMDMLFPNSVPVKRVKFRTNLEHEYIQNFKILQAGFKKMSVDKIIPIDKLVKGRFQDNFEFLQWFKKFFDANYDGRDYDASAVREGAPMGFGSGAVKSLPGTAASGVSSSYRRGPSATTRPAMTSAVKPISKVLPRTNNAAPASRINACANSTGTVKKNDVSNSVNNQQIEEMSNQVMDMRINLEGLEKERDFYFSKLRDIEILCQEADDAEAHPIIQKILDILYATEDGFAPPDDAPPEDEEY


Legend:
[1] = target: T1, FLAG-tagged EB1 (Drosophila); experiment: co-IP
[2] = target: GST-KIF3AT (GST-tagged tail of human KIF3A) (human); experiment: pull-down
[3] = target: GST-KIF3BT (GST-tagged tail of human KIF3B) (human); experiment: pull-down
[4] = target: GST-tagged KLP68D tail fragment (Drosophila); experiment: pull-down

Row | Molecule | binding [1] | binding [2] | binding [3] | binding [4]
1 | tail-less KLP68DΔT:YFP (Drosophila) (domain or fragment) | no binding | – | – | –
2 | EB1:GFP (End-binding protein 1 with GFP) (protein, UniProt Q9XZ57 1-290) MAVNVYSTNVTSENLSRHDMLAWVNDCLQSQFSKIEELCTGAAYCQFMDMLFPNSVPVKRVKFRTNLEHEYIQNFKILQAGFKKMSVDKIIPIDKLVKGRFQDNFEFLQWFKKFFDANYDGRDYDASAVREGAPMGFGSGAVKSLPGTAASGVSSSYRRGPSATTRPAMTSAVKPISKVLPRTNNAAPASRINACANSTGTVKKNDVSNSVNNQQIEEMSNQVMDMRINLEGLEKERDFYFSKLRDIEILCQEADDAEAHPIIQKILDILYATEDGFAPPDDAPPEDEEY | – | no binding | no binding | binds
